According to patent publication US20240269094A1, “Treatment of canine dermatitis and skin irritation” (priority 2023, published 2024):
Structures can show the parent of a compound that is named as a salt.

Test system: canine dermatitis, scratching and licking
Test: Topical treatment of canine skin irritation (case studies)
Format: in vivo, dog
Conditions: Study 2, oral liquid for one week
Source text: A six-year-old long-haired Dachshund, over eight months, developed an inflamed area on the belly and lower right groin where it frequently licked and scratched. Upon examination, the site was red and swollen (FIG. 9). A visit to the veterinarian ruled out fleas and mites or fungal and bacteria growth. The veterinarian called it a non-specific allergy and recommended cetirizine hydrochloride liquid compounded for dogs. […] The Applicant gave the dog's owner an airless pump dispenser containing 8% wt/vol of FEMA 4557 dispersed in 4 mg/ml of carbapol 980, formulated with 1% ethanol and 1% menthol, and instructed him to apply the gel to the skin of the dog's belly and groin. […] Treatment continued for one week, after which the skin appeared utterly normal. The inflammation and scratching have not come back.
A twelve-year-old West Highland Terrier had periodic episodes of seasonal skin allergy. She would scratch until the site (groin and hindquarters) lost its fur and was bare down to the skin. A visit to the vet concluded that fleas, mites, or pyoderma were not causing the skin irritation, but the condition may be due to fungus. […] The owner of the dog, who had access to a pharmacy, applied nystatin ointment and a potent skin steroid cream containing […]. […]

O=C(O)COCCN1CCN(C(c2ccccc2)c2ccc(Cl)cc2)CC1 (stereo not shown) [cetirizine, cetirizine hydrochloride]
effect on red skin and licking: did not affect the red skin or the licking
